Reference: the supplement of paper PMC10849652
This is one part of the list.

Chains of the proteins cited; added tags and fusions are not shown. Lines headed by an entry give the natural chain unless they say otherwise; changes in a name come on top.
UniProt Q8N6N3: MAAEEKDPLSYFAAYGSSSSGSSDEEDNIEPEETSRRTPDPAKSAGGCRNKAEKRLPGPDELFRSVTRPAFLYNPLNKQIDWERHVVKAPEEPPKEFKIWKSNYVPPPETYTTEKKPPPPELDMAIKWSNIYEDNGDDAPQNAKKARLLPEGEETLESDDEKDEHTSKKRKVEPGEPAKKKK
UniProt Q9H7E9: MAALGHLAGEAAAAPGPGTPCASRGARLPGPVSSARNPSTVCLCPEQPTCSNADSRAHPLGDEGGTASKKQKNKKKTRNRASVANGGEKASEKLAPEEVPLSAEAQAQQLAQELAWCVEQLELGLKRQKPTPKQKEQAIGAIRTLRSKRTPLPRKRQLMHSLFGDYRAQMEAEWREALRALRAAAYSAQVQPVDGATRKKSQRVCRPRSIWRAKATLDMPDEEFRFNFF
UniProt Q49AR2: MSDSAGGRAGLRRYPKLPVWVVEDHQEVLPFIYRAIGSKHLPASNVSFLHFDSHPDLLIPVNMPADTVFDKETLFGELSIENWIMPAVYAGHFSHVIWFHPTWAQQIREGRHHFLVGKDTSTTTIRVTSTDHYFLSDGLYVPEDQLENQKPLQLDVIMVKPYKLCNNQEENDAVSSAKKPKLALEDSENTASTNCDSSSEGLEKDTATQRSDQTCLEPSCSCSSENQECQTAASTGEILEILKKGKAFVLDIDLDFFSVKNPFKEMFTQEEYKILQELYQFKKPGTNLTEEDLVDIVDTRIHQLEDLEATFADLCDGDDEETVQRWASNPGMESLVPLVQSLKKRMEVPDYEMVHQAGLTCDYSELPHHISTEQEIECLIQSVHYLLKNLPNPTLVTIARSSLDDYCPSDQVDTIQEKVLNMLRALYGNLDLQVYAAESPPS
UniProt P41223: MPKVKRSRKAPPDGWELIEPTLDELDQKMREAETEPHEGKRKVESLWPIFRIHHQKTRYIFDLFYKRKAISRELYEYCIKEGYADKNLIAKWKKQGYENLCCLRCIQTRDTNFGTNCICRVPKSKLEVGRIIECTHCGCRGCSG
UniProt P35219: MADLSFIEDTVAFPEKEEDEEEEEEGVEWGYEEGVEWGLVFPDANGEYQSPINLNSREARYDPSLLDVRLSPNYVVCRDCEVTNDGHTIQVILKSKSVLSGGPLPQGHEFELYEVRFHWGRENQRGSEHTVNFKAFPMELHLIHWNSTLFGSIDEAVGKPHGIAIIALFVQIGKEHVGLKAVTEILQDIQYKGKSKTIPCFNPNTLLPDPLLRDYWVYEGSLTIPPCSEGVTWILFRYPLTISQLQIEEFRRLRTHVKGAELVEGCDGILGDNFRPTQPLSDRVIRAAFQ
UniProt Q8IXQ3: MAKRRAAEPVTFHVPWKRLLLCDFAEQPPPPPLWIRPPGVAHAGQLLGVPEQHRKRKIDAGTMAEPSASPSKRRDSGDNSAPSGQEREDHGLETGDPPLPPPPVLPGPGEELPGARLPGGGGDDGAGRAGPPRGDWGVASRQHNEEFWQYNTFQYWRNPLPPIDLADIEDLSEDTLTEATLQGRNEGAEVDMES
UniProt Q8TCD1: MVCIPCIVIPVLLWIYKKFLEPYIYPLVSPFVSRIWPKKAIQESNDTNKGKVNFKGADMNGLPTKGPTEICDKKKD
UniProt Q7L1Q6: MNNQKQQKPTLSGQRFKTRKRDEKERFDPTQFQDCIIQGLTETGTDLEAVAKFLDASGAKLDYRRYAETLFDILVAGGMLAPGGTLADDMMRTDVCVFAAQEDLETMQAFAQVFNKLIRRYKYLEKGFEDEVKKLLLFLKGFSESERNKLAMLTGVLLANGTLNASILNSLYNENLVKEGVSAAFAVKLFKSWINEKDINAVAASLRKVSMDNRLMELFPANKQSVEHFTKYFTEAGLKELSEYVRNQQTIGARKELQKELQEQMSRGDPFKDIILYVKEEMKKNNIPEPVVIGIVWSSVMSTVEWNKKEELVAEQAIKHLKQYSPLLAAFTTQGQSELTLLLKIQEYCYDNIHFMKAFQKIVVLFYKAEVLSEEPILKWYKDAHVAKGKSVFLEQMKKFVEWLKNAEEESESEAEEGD
UniProt O43709: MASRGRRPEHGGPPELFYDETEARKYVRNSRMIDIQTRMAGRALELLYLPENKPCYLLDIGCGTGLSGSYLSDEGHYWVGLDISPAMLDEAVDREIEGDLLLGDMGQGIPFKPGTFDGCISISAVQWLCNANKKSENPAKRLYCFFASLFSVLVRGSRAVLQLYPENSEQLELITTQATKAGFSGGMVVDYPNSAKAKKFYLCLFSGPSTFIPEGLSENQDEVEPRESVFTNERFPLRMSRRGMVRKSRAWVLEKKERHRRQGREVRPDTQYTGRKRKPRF
UniProt Q9H3H3: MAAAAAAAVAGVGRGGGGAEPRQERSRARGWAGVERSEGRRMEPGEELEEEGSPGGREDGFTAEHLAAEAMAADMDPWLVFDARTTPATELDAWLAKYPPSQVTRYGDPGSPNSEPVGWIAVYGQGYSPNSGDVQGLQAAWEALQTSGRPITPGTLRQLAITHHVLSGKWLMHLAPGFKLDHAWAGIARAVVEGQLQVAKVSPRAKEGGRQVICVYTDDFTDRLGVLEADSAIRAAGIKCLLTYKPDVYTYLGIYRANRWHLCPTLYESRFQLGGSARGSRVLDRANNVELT
UniProt Q07021: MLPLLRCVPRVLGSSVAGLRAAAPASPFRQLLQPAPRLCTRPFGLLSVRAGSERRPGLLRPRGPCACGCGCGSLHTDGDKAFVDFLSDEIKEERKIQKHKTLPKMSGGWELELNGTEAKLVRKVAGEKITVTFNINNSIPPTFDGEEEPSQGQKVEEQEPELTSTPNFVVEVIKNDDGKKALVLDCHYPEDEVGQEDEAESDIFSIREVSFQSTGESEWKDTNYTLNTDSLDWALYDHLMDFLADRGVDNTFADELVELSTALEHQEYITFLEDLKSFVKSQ
UniProt P04632: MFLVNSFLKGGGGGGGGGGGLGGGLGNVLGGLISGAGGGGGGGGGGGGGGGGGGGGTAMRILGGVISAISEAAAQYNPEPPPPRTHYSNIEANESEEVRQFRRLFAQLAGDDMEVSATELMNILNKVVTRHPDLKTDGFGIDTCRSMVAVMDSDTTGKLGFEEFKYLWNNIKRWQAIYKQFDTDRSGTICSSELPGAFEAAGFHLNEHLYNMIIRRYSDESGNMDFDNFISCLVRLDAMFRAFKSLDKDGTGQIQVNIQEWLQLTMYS
UniProt Q9NZ63: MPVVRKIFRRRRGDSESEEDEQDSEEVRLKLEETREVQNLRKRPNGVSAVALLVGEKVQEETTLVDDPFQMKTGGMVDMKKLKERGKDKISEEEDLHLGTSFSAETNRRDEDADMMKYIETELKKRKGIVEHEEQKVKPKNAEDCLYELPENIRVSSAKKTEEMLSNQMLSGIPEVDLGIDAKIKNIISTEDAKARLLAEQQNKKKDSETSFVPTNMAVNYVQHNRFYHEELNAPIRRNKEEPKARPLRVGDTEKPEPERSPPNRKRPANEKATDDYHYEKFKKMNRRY
UniProt Q96N11, whole entry, looked up: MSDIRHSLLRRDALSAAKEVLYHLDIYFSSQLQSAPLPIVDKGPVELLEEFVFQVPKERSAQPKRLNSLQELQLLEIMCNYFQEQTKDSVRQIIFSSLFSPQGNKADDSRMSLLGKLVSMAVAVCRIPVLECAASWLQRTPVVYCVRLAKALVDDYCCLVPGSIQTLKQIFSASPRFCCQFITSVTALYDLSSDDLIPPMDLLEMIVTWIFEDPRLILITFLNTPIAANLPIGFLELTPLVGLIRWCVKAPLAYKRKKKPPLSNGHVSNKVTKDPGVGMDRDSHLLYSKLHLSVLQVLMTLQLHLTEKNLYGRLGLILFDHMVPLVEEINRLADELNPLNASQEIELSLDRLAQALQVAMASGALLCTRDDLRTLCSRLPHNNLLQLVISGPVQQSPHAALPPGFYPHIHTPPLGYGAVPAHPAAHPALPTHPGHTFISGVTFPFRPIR
UniProt Q8N999, whole entry, looked up: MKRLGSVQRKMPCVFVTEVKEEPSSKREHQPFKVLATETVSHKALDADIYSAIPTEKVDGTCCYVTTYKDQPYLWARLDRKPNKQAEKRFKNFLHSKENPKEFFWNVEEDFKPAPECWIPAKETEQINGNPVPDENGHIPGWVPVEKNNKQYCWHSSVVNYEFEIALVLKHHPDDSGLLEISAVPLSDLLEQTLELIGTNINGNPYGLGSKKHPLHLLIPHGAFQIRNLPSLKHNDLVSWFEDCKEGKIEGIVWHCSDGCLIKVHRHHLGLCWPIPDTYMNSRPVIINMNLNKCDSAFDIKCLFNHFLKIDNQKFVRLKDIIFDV
UniProt Q8N5S9: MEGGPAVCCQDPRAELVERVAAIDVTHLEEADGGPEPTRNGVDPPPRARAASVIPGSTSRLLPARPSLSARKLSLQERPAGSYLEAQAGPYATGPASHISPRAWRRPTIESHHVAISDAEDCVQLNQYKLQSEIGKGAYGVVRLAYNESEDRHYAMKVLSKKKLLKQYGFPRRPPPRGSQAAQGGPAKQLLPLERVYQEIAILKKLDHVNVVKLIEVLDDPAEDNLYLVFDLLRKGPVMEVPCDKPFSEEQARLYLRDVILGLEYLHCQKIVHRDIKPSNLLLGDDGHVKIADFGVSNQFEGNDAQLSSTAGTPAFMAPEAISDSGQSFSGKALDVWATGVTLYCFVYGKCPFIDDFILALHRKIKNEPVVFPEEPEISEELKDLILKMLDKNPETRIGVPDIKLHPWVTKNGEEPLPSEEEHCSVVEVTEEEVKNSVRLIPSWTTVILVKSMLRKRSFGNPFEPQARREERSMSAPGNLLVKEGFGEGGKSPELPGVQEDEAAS
UniProt Q13554, whole entry, looked up: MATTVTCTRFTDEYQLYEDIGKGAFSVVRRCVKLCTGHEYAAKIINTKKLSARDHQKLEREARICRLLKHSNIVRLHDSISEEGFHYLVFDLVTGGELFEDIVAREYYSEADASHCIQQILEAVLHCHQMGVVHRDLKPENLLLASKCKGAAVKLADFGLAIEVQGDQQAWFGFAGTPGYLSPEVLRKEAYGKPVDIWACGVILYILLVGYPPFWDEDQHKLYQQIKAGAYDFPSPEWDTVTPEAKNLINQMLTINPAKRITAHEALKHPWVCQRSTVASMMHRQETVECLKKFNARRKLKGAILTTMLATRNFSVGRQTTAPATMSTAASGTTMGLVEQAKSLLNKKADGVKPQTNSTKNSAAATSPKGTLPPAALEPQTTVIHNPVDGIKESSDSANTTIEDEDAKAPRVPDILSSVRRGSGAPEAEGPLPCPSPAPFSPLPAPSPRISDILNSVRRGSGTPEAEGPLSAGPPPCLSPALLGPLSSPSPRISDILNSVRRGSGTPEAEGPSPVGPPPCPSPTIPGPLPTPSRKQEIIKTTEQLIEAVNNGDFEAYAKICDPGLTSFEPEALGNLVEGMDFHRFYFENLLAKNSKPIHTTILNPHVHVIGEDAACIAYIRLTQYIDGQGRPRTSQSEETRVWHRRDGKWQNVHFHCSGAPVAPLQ
UniProt Q9BV19: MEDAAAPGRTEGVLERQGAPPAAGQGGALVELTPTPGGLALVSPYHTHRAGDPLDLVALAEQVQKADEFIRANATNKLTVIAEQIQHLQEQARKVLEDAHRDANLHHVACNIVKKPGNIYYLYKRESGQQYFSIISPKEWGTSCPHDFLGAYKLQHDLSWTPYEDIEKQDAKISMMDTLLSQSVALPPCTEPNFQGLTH
UniProt Q9UFG5: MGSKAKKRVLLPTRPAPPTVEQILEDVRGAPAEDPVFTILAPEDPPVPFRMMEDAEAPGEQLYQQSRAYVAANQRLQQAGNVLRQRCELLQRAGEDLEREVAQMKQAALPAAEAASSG
UniProt Q9NSG2: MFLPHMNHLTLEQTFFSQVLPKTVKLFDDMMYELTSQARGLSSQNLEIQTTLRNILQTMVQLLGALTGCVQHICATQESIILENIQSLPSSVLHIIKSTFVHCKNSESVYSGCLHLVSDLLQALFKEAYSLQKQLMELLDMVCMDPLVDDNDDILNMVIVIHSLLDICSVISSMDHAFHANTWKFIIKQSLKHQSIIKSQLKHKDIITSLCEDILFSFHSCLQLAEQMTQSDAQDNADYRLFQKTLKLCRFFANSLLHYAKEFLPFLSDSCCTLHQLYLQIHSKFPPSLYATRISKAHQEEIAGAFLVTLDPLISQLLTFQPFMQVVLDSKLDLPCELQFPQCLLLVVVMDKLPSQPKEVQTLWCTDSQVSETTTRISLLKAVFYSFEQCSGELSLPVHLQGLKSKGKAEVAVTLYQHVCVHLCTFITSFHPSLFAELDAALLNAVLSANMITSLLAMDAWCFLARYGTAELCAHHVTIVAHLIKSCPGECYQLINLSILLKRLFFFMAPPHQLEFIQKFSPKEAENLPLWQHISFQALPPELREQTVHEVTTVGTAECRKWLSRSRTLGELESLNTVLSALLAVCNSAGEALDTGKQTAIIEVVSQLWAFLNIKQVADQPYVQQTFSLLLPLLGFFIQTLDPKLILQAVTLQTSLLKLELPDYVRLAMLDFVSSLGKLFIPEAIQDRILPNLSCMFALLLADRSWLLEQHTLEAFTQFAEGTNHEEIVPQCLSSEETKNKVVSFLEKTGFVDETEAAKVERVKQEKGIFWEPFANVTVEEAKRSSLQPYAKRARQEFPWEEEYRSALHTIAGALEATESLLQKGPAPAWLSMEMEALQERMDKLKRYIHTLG

Columns and labels:
Assay in all cases: log2 fold change, soluble protein after heating vs DMSO (PISA); higher = thermal stabilisation; K562 lysate, 10 uM; active = over 0.2 and 3.5 SD of the protein, either way, in both replicates (recomputed)
nilotinib = compound: Cc1cn(-c2cc(NC(=O)c3ccc(C)c(Nc4nccc(-c5cccnc5)n4)c3)cc(C(F)(F)F)c2)cn1 [nilotinib]
Outline: (§1)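 Quantification was by TMTpro 16plex LC-MS/MS with equalised channel sums, applied to the supernatant after 21,000xg for 90 min. Samples were crude K562 extract at 1 mg/mL protein in PBS pH 7.4 with 1 mM MgCl2, treated with 10 μM compound for 30 min, heated for 3 min across 48°C-58°C, pooled and brought to 0.5% NP-40 at 4°C. Values are log-two fold changes in thermal stability relative to solvent controls, from duplicates.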

[1] = compound: Cc1nc(Nc2n[nH]c3c2CN(C(=O)N[C@H](CN(C)C)c2ccccc2)C3(C)C)c2sccc2n1
Outline: as §1

dasatinib = compound: Cc1nc(Nc2ncc(C(=O)Nc3c(C)cccc3Cl)s2)cc(N2CCN(CCO)CC2)n1 [dasatinib]
Outline: as §1

[2] = compound: Cc1ncc(-c2ccnc(Nc3ccc(S(C)(=O)=O)cc3)n2)n1C(C)C
Outline: as §1

[3] = compound: Cn1cc(-c2ccc3c(c2)CCN3C(=O)Cc2cccc(C(F)(F)F)c2)c2c(N)ncnc21
Outline: as §1

quisinostat = compound: Cn1cc(CNCC2CCN(c3ncc(C(=O)NO)cn3)CC2)c2ccccc21 [quisinostat]
Outline: as §1

tipifarnib = compound: Cn1cncc1[C@@](N)(c1ccc(Cl)cc1)c1ccc2c(c1)c(-c1cccc(Cl)c1)cc(=O)n2C [tipifarnib]
Outline: as §1

[4] = compound: NC(=O)Nc1cc(-c2cccc(F)c2)sc1C(=O)N[C@H]1CCCNC1
Outline: as §1

[5] = compound: NC(=O)c1cnc(N[C@@H]2CCCC[C@@H]2N)nc1Nc1cccc(-n2nccn2)c1
Outline: as §1

[6] = compound: NC1(c2ccc(-c3nc4ccn5c(=O)[nH]nc5c4cc3-c3ccccc3)cc2)CCC1
Outline: as §1

Measured: log2 fold change

C1orf52 (UniProt Q8N6N3)
inactive: nilotinib -0.011 | [1] 0.039 | dasatinib 0.016 | [2] -0.008 | [3] -0.045 | quisinostat 0.028 | tipifarnib -0.079 | [4] 0.013 | [5] 0.015 | [6] -0.016

CAND1 (UniProt F5H6I6)
inactive: nilotinib 0.069 | [1] -0.144 | dasatinib 0.011 | [2] -0.05 | [3] 0.06 | quisinostat -0.083 | tipifarnib 0.038 | [4] 0.044 | [5] 0.058 | [6] -0.157

C8orf33 isoform 2 (UniProt Q9H7E9)
inactive: nilotinib -0.018 | [1] 0.004 | dasatinib 0.086 | [2] -0.019 | [3] -0.048 | quisinostat 0.004 | tipifarnib 0.066 | [4] -0.071 | [5] -0.036 | [6] 0.103

C3orf33 (UniProt Q6P1S2)
inactive: nilotinib -0.105 | [1] -0.15 | dasatinib -0.013 | [2] 0.009 | [3] -0.072 | quisinostat -0.14 | tipifarnib 0.007 | [4] 0.274 | [5] 0.094 | [6] 0.123

C5orf22 (UniProt Q49AR2)
inactive: nilotinib -0.002 | [1] -0.017 | dasatinib 0.035 | [2] -0.003 | [3] -0.009 | quisinostat 0.006 | tipifarnib 0.008 | [4] 0.006 | [5] -0.006 | [6] -0.003

BUD31 (UniProt P41223)
inactive: nilotinib 0.014 | [1] 0 | dasatinib 0.005 | [2] -0.037 | [3] -0.032 | quisinostat 0.07 | tipifarnib 0.03 | [4] -0.013 | [5] -0.015 | [6] 0.047

CA8 (UniProt P35219)
inactive: nilotinib 0.01 | [1] -0.072 | dasatinib 0.005 | [2] -0.038 | [3] -0.009 | quisinostat -0.035 | tipifarnib 0.006 | [4] 0.028 | [5] -0.001 | [6] -0.007

C9orf40 (UniProt Q8IXQ3)
inactive: nilotinib -0.091 | [1] 0.177 | dasatinib -0.009 | [2] 0.107 | [3] -0.045 | quisinostat 0.003 | tipifarnib -0.079 | [4] 0.023 | [5] 0.011 | [6] -0.07

C18orf32 (UniProt Q8TCD1)
inactive: nilotinib 0.058 | [1] -0.078 | dasatinib -0.026 | [2] 0.072 | [3] 0.167 | quisinostat 0.027 | tipifarnib 0.093 | [4] -0.11 | [5] -0.084 | [6] 0.062

CAD (UniProt P27708)
inactive: nilotinib 0.004 | [1] 0.013 | dasatinib -0.094 | [2] -0.001 | [3] 0.038 | quisinostat -0.02 | tipifarnib -0.005 | [4] 0.023 | [5] -0.006 | [6] 0.004

BZW1 isoform 3 (UniProt Q7L1Q6)
inactive: nilotinib -0.005 | [1] -0.008 | dasatinib -0.032 | [2] -0.001 | [3] 0.035 | quisinostat 0.056 | tipifarnib -0.02 | [4] 0.012 | [5] 0.013 | [6] 0.023

Quoted from the entries so far (2 entries):
C5orf22 (UniProt Q49AR2)
inactive: nilotinib -0.002 | [1] -0.017 | dasatinib 0.035 | [2] -0.003 | [3] -0.009 | quisinostat 0.006 | tipifarnib 0.008 | [4] 0.006 | [5] -0.006 | [6] -0.003

BUD31 (UniProt P41223)
inactive: nilotinib 0.014 | [1] 0 | dasatinib 0.005 | [2] -0.037 | [3] -0.032 | quisinostat 0.07 | tipifarnib 0.03 | [4] -0.013 | [5] -0.015 | [6] 0.047

Further entries follow.

BUD23 isoform 3 (UniProt O43709)
inactive: nilotinib -0.003 | [1] -0.008 | dasatinib 0.035 | [2] -0.084 | [3] 0.035 | quisinostat 0.009 | tipifarnib 0.015 | [4] 0.035 | [5] -0.076 | [6] -0.017

C3orf38 (UniProt Q5JPI3)
inactive: nilotinib -0.013 | [1] 0.058 | dasatinib -0.011 | [2] -0.004 | [3] -0.069 | quisinostat -0.078 | tipifarnib 0.049 | [4] 0.053 | [5] -0.041 | [6] 0.017

C11orf68 isoform 3 (UniProt Q9H3H3)
inactive: nilotinib -0.029 | [1] -0.014 | dasatinib -0.009 | [2] -0.019 | [3] -0.024 | quisinostat 0.014 | tipifarnib -0.036 | [4] -0.027 | [5] -0.033 | [6] -0.029

CARD11 (UniProt Q9BXL7)
inactive: nilotinib -0.047 | [1] 0.04 | dasatinib -0.053 | [2] 0.043 | [3] 0.004 | quisinostat -0.031 | tipifarnib -0.015 | [4] 0.025 | [5] 0.048 | [6] 0.009

CAP1 (UniProt Q01518)
inactive: nilotinib 0.015 | [1] -0.011 | dasatinib -0.029 | [2] 0.004 | [3] -0.027 | quisinostat 0.014 | tipifarnib 0.018 | [4] -0.008 | [5] -0.028 | [6] -0.01

C1QBP (UniProt Q07021)
inactive: nilotinib -0.005 | [1] 0.007 | dasatinib 0.012 | [2] 0.018 | [3] -0.012 | quisinostat -0.004 | tipifarnib -0.012 | [4] 0.001 | [5] -0.02 | [6] -0.014

CAPNS1 (UniProt P04632)
inactive: nilotinib -0.007 | [1] 0.027 | dasatinib 0.035 | [2] -0.002 | [3] -0.014 | quisinostat 0.078 | tipifarnib 0.017 | [4] -0.077 | [5] -0.05 | [6] 0.01

C1orf167 isoform 2 (UniProt Q5SNV9)
inactive: nilotinib -0.193 | [1] 0 | dasatinib -0.051 | [2] -0.013 | [3] -0.047 | quisinostat -0.304 | tipifarnib -0.053 | [4] 0.055 | [5] 0.052 | [6] -0.011

C9orf78 (UniProt Q9NZ63)
inactive: nilotinib -0.013 | [1] 0.044 | dasatinib 0.057 | [2] 0.017 | [3] 0.005 | quisinostat 0.02 | tipifarnib -0.005 | [4] -0.028 | [5] -0.008 | [6] 0.008

BYSL (UniProt Q13895)
inactive: nilotinib -0.013 | [1] -0.017 | dasatinib -0.017 | [2] 0.002 | [3] 0.008 | quisinostat 0.04 | tipifarnib 0.023 | [4] 0.013 | [5] 0.037 | [6] 0.034

C7orf26 (UniProt Q96N11)
inactive: nilotinib 0.133 | [1] 0.142 | dasatinib -0.051 | [2] -0.062 | [3] -0.06 | quisinostat -0.003 | tipifarnib 0.128 | [4] 0.036 | [5] -0.01 | [6] 0.008

C12orf29 (UniProt Q8N999)
inactive: nilotinib -0.036 | [1] -0.008 | dasatinib -0.026 | [2] 0.021 | [3] -0.025 | quisinostat -0.09 | tipifarnib -0.026 | [4] -0.033 | [5] 0.079 | [6] -0.029

CAMKK1 isoform 2 (UniProt Q8N5S9)
inactive: nilotinib -0.013 | [1] 0.144 | dasatinib 0.05 | [2] 0.064 | [3] 0.189 | quisinostat -0.072 | tipifarnib -0.064 | [4] 0.047 | [5] -0.002 | [6] 0.007

CAMK2B (UniProt Q13554)
active: [1] 0.399
inactive: nilotinib -0.026 | dasatinib -0.055 | [2] 0.026 | [3] 0.023 | quisinostat -0.205 | tipifarnib -0.035 | [4] 0.295 | [5] 0.089 | [6] -0.045

C1orf50 (UniProt Q9BV19)
inactive: nilotinib 0.05 | [1] -0.065 | dasatinib 0.005 | [2] 0.125 | [3] -0.049 | quisinostat 0.167 | tipifarnib 0.052 | [4] -0.02 | [5] -0.026 | [6] 0.024

CANX isoform 2 (UniProt P27824)
inactive: nilotinib -0.006 | [1] 0.008 | dasatinib 0.012 | [2] -0.02 | [3] -0.02 | quisinostat -0.029 | tipifarnib -0.064 | [4] -0.011 | [5] -0.004 | [6] -0.011

C19orf25 (UniProt Q9UFG5)
inactive: nilotinib 0.058 | [1] -0.043 | dasatinib 0.026 | [2] 0.081 | [3] -0.006 | quisinostat -0.008 | tipifarnib -0.065 | [4] 0.035 | [5] -0.026 | [6] -0.057

C1orf112 (UniProt Q9NSG2)
inactive: nilotinib 0.089 | [1] -0.015 | dasatinib -0.102 | [2] 0.017 | [3] 0.05 | quisinostat -0.1 | tipifarnib -0.046 | [4] 0.036 | [5] -0.03 | [6] -0.007
